The target in this test is T1, SXR (UniProt O75469 130-434, limits assumed).
T1 construct: also called steroid and xenobiotic receptor; steroid X receptor
T1 sequence (looked up): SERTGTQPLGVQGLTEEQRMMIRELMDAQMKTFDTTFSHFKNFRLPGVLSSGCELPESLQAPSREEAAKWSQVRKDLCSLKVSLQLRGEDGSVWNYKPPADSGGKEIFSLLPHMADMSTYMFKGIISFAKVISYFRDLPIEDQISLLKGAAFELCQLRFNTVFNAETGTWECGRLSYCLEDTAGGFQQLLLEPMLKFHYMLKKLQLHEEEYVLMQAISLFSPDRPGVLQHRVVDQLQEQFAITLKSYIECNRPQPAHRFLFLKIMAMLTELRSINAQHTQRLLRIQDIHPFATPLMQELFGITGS
In words: Thermofluor thermal shift; SXR with and without ligands.

By UniProt entry, the sequences of proteins in these tests, tags left out. Where a name states a change or a piece, a line headed by the entry shows the natural chain unless it says otherwise.
UniProt Q15788: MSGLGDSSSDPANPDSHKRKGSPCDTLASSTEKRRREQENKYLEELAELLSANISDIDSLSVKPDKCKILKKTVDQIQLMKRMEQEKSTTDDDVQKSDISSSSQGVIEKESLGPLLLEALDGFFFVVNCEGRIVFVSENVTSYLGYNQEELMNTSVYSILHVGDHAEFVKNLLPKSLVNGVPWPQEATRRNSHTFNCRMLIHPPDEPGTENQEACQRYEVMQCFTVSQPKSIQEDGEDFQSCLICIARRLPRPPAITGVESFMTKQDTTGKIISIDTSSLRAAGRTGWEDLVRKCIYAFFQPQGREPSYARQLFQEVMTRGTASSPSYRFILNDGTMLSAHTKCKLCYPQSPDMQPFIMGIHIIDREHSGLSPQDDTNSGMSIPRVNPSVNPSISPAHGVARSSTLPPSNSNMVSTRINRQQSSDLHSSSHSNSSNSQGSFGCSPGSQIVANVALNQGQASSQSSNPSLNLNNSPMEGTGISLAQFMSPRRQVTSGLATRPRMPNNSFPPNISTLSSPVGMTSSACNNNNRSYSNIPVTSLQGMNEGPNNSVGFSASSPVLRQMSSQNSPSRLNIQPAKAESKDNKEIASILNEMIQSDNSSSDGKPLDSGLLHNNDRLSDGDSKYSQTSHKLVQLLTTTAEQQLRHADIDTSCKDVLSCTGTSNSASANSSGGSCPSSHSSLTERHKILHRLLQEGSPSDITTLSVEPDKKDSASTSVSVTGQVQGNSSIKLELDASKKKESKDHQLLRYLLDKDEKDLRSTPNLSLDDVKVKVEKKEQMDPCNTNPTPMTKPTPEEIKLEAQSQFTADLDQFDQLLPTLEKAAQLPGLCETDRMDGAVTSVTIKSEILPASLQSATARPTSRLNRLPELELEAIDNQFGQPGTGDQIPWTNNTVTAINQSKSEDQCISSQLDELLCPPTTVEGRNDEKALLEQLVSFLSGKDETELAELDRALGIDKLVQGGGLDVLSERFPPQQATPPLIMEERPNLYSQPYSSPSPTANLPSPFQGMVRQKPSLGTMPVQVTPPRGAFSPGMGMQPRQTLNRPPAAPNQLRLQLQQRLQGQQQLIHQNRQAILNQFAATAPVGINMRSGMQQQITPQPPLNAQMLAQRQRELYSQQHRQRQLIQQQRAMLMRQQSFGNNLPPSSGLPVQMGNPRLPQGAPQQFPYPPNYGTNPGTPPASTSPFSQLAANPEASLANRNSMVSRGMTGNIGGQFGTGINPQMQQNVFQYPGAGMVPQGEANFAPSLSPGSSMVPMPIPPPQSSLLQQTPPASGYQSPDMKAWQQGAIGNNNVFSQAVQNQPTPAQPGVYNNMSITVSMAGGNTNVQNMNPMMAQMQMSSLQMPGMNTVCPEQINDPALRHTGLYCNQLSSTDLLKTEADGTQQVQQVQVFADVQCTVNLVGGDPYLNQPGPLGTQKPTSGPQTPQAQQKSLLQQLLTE

Results are given in words; binding and its absence hold for the method and conditions named. Some entries that bind do so weakly or less than the wild type.

Turning to LTERHKILHRLLQEGSPSD (peptide, UniProt Q15788 683-701, looked up, Peptide fragment of SRC-1) [co-activator peptide SRC1-NR2], the binding result is reported as “binds”.

Values taken from US20060099643A1, “Method for determining the regulation of xenobiotic removal” (priority 2002, published 2006).
